Measured values from patent US20090247646A1, “USE OF RESVERATROL AND DERIVATIVES THEREOF FOR PROMOTING THE WELLNESS STATE IN MAMMALS” (priority 2006, published 2009).
The source gives many values for each of these; only a part stands here.

System: gene expression in heart tissue
Assay: Genome-wide gene expression in heart tissue of old mice fed a resveratrol-supplemented diet (Affymetrix Mouse Genome 430 2.0 array)
Format: in vivo

Measured: Effect of resveratrol on changeing gene expression from old to young profile

Oc1ccc(/C=C/c2cc(O)cc(O)c2)cc1 [resveratrol, 3,4′,5-Trihydroxy-trans-stilbene]
60-70%: 1416368_at glutathione S-transferase, alpha 4 | 1416408_at acyl-Coenzyme A oxidase 1, palmitoyl | 1416499_a_at dynactin 6 | 1417350_at pallidin | 1417374_at tubulin, alpha 4 | 1417497_at ceruloplasmin | 1417736_at SMC6 structural maintenance of chromosomes 6-like 1 (yeast) | 1418435_at makorin, ring finger protein, 1 | 1418592_at DnaJ (Hsp40) homolog, subfamily A, member 4 | 1419257_at transcription elongation factor A (SII) 1 | 1420629_a_at DnaJ (Hsp40) homolog, subfamily A, member 3 | 1422470_at BCL2/adenovirus E1B 19 kDa-interacting protein 1, NIP3 | 1423089_at tropomodulin 3 | 1423114_at ubiquitin-conjugating enzyme E2D 3 (UBC4/5 homolog, yeast) | 1423652_at HESB like domain containing 2 | 1424126_at aminolevulinic acid synthase 1 | 1424671_at pleckstrin homology domain containing, family F (with FYVE domain) member 1 | 1425158_at T-box 20 | 1426382_at protein phosphatase 1B, magnesium dependent, beta isoform | 1427548_a_at chloride channel, nucleotide-sensitive, 1A | 1428021_at methylcrotonoyl-Coenzyme A carboxylase 2 (beta)
90-100%: 1416525_at speckle-type POZ protein | 1416794_at ADP-ribosylation factor-like 6 interacting protein 2 | 1416973_at sperm specific antigen 1 | 1417539_at solute carrier family 35 (CMP-sialic acid transporter), member 1 | 1417764_at signal sequence receptor, alpha | 1418406_at phosphodiesterase 8A | 1418692_at RAB8A, member RAS oncogene family | 1418768_at optic atrophy 1 homolog (human) | 1418843_at solute carrier family 30 (zinc transporter), member 4 | 1419300_at FMS-like tyrosine kinase 1 | 1419543_a_at Mus musculus similar to splicing factor, arginine/serine-rich (transformer 2 Drosophila homolog) 10 (LOC229280), mRNA | 1420607_at RNA binding motif protein 18 | 1420731_a_at cysteine and glycine-rich protein 2 | 1420971_at ubiquitin protein ligase E3 component n-recognin 1 | 1421102_a_at vesicle-associated membrane protein 3 | 1421116_a_at reticulon 4 | 1423482_at uroporphyrinogen III synthase | 1423627_at NAD(P)H dehydrogenase, quinone 1 | 1424167_a_at phosphomannomutase 1 | 1424314_at PRP3 pre-mRNA processing factor 3 homolog (yeast) | 1425542_a_at protein phosphatase 2, regulatory subunit B (B56), gamma isoform | 1428295_at synaptopodin 2-like | 1428367_at N-deacetylase/N-sulfotransferase (heparan glucosaminyl) 1 | 1428372_at suppression of tumorigenicity 5 | 1428471_at sorbin and SH3 domain containing 1 | 1428645_at guanine nucleotide binding protein, alpha inhibiting 3
<60%: 1415748_a_at dynactin 5 | 1415801_at gap junction membrane channel protein alpha 1 | 1416601_a_at Down syndrome critical region homolog 1 (human) | 1417729_at myosin, heavy polypeptide 6, cardiac muscle, alpha | 1419088_at tissue inhibitor of metalloproteinase 3 | 1419098_at erythrocyte protein band 7.2 | 1419678_at large tumor suppressor 2 | 1420858_at protein kinase inhibitor, alpha | 1420871_at guanylate cyclase 1, soluble, beta 3 | 1421239_at interleukin 6 signal transducer | 1421828_at karyopherin (importin) alpha 3 | 1421895_at eukaryotic translation initiation factor 2, subunit 3, structural gene X-linked | 1422090_a_at 6-phosphofructo-2-kinase/fructose-2,6-biphosphatase 2 | 1422772_at core 1 UDP-galactose:N-acetylgalactosamine-alpha-R beta 1,3-galactosyltransferase | 1425097_a_at zinc finger protein 106 | 1425533_a_at staufen (RNA binding protein) homolog 2 (Drosophila) | 1426066_a_at dystrobrevin alpha | 1426519_at procollagen-proline, 2-oxoglutarate 4-dioxygenase (proline 4-hydroxylase), alpha 1 polypeptide | 1427610_at desmoplakin | 1429533_at inner membrane protein, mitochondrial
70-80%: 1416084_at zinc finger protein 216 | 1416950_at tumor necrosis factor, alpha-induced protein 8 | 1419288_at junction adhesion molecule 2 | 1420533_at guanylate cyclase 1, soluble, alpha 3 | 1420542_at open reading frame 28 | 1420806_at fibroblast growth factor 16 | 1421333_a_at myoneurin | 1421832_at twisted gastrulation homolog 1 (Drosophila) | 1421854_at fibrinogen-like protein 2 | 1421880_at myotubularin related protein 1 | 1421985_a_at eukaryotic translation initiation factor 4E like 3 | 1422690_at serine palmitoyltransferase, long chain base subunit 1 | 1422795_at cullin 3 | 1423413_at N-myc downstream regulated 1 | 1424648_at RAB, member of RAS oncogene family-like 4 | 1425140_at lactamase, beta 2 | 1425631_at protein phosphatase 1, regulatory (inhibitor) subunit 3C | 1425929_a_at ring finger protein 14 | 1426313_at brain and reproductive organ-expressed protein | 1426824_at proteasome (prosome, macropain) activator subunit 4 | 1427902_at serine/arginine repetitive matrix 2
80-90%: 1415704_a_at carnitine deficiency-associated gene expressed in ventricle 3 | 1416706_at ribulose-5-phosphate-3-epimerase | 1416988_at mutS homolog 2 (E. coli) | 1417220_at fumarylacetoacetate hydrolase | 1417442_a_at peroxisomal biogenesis factor 3 | 1417535_at F-box only protein 25 | 1417668_at reticulon 4 interacting protein 1 | 1417734_at neighbor of A-kinase anchoring protein 95 | 1418231_at LIM and senescent cell antigen-like domains 1 | 1419639_at ephrin B2 | 1419662_at osteoglycin | 1420959_at aspartate-beta-hydroxylase | 1421215_a_at sarcolemma associated protein | 1422834_at potassium voltage-gated channel, Shal-related family, member 2 | 1422879_at Mus musculus transcribed sequences | 1423042_at DEAD/H (Asp-Glu-Ala-Asp/His) box polypeptide 3, X-linked | 1423051_at heterogeneous nuclear ribonucleoprotein U | 1423108_at solute carrier family 25 (mitochondrial carnitine/acylcarnitine translocase), member 20 | 1423368_at lysosomal-associated protein transmembrane 4A | 1423720_a_at SAR1a gene homolog 1 (S. cerevisiae) | 1423799_at suppressor of initiator codon mutations, related sequence 1 (S. cerevisiae) | 1426837_at methionyl aminopeptidase 1 | 1426983_at formin binding protein 1 | 1427165_at interleukin 13 receptor, alpha 1 | 1427490_at ATP-binding cassette, sub-family B (MDR/TAP), member 7 | 1428061_at histidine aminotransferase 1 | 1428587_at DNA segment, Chr 7, ERATO Doi 743, expressed | 1429830_a_at CD59a antigen
>100%: 1415681_at mitochondrial ribosomal protein L43 | 1415690_at mitochondrial ribosomal protein L27 | 1415713_a_at DEAD (Asp-Glu-Ala-Asp) box polypeptide 24 | 1415735_at damage specific DNA binding protein 1 | 1415763_a_at Mus musculus transcribed sequence | 1415834_at dual specificity phosphatase 6 | 1415838_at tumor differentially expressed 2 | 1415864_at 2,3-bisphosphoglycerate mutase | 1415882_at growth hormone inducible transmembrane protein | 1415966_a_at NADH dehydrogenase (ubiquinone) flavoprotein 1 | 1415989_at vascular cell adhesion molecule 1 | 1416041_at serum/glucocorticoid regulated kinase | 1416066_at CD9 antigen | 1416091_at microtubule-associated protein 4 | 1416194_at cytochrome P450, family 4, subfamily b, polypeptide 1 | 1416320_at SEC22 vesicle trafficking protein-like 2 (S. cerevisiae) | 1416364_at heat shock protein 1, beta | 1416374_at adaptor-related protein complex 3, mu 1 subunit | 1416532_at expressed sequence AI481500 | 1416542_at PHD finger protein 1 | 1416590_a_at RAB34, member of RAS oncogene family | 1416593_at glutaredoxin 1 (thioltransferase) | 1416595_at mitochondrial ribosomal protein S22 | 1416652_at asporin | 1416659_at eukaryotic translation initiation factor 3, subunit 10 (theta) | 1416803_at FK506 binding protein 7 | 1416852_a_at expressed sequence AU040320 | 1416923_a_at BCL2/adenovirus E1B 19 kDa-interacting protein 3-like | 1416958_at nuclear receptor subfamily 1, group D, member 2 | 1417109_at lipocalin 7 | 1417324_at microtubule associated serine/threonine kinase 2 | 1417386_at puromycin-sensitive aminopeptidase | 1417423_at glutamate receptor, ionotropic, N-methyl D-asparate-associated protein 1 (glutamate binding) | 1417480_at f-box only protein 9 | 1417557_at UBX domain containing 1 | 1417673_at growth factor receptor bound protein 14 | 1417868_a_at cathepsin Z | 1417933_at keratin complex 2, basic, gene 8 | 1417964_at adaptor-related protein complex 3, delta subunit | 1418030_at solute carrier organic anion transporter family, member 3a1 | 1418098_at adenylate cyclase 4 | 1418117_at NADH dehydrogenase (ubiquinone) Fe—S protein 4 | 1418181_at protein tyrosine phosphatase 4a3 | 1418401_a_at dual specificity phosphatase 16 | 1418454_at microfibrillar associated protein 5 | 1418502_a_at oxidation resistance 1 | 1418518_at furin (paired basic amino acid cleaving enzyme) | 1418527_a_at neural-salient serine/arginine-rich | 1418589_a_at myeloid leukemia factor 1 | 1418621_at RAB2, member RAS oncogene family | 1418627_at glutamate-cysteine ligase, modifier subunit | 1418701_at armadillo repeat gene deleted in velo-cardio-facial syndrome | 1418835_at pleckstrin homology-like domain, family A, member 1 | 1419041_at DNA segment, Chr 8, Wayne State University 49, expressed | 1419054_a_at protein tyrosine phosphatase, non-receptor type 21 | 1419259_at Ras suppressor protein 1 | 1419295_at cAMP responsive element binding protein 3-like 1 | 1419365_at adaptor-related protein complex 3, sigma 2 subunit | 1419440_at ring finger protein 30 | 1420427_a_at DEAH (Asp-Glu-Ala-His) box polypeptide 32 | 1420889_at holocytochrome c synthetase | 1420900_a_at RAB18, member RAS oncogene family | 1420991_at ankyrin repeat domain 1 (cardiac muscle) | 1421054_at exportin 4 | 1421072_at Iroquois related homeobox 5 (Drosophila) | 1421139_a_at zinc finger protein 386 (Kruppel-like) | 1421197_a_at apoptotic chromatin condensation inducer in the nucleus | 1421441_at angiopoietin | 1421450_a_at mitogen activated protein kinase kinase kinase 4 | 1421654_a_at lamin A | 1421743_a_at poly(rC) binding protein 2 | 1421861_at calsyntenin 1 | 1421871_at SH3-binding domain glutamic acid-rich protein like | 1421962_at DnaJ (Hsp40) homolog, subfamily B, member 5 | 1422375_a_at ADP-ribosyltransferase 1 | 1422414_a_at calmodulin 3 | 1422521_at dynactin 1 | 1422522_at fragile X mental retardation gene 2, autosomal homolog | 1422538_at exotoses (multiple)-like 2 | 1422569_at YY1 transcription factor | 1422811_at solute carrier family 27 (fatty acid transporter), member 1 | 1422842_at 5′-3′ exoribonuclease 2 | 1422845_at calnexin | 1423041_a_at basic leucine zipper and W2 domains 1 | 1423063_at DNA methyltransferase 3A | 1423198_a_at expressed sequence AW011752 | 1423332_at syndecan binding protein | 1423345_at degenerative spermatocyte homolog (Drosophila) | 1423373_at ribonuclease P2 | 1423452_at serine/threonine kinase 17b (apoptosis-inducing) | 1423793_at DNA segment, Chr 2, ERATO Doi 391, expressed | 1424109_a_at glyoxalase 1 | 1424111_at insulin-like growth factor 2 receptor | 1424141_at HECT domain containing 1 | 1424269_a_at Mus musculus similar to myosin light chain, alkali, nonmuscle (LOC383643), mRNA | 1424359_at Mus musculus transcribed sequence with weak similarity to protein ref: NP_061137.1 (H. sapiens) sphingomyelin phosphodiesterase 3, neutral membrane (neutral sphingomyelinase II) [Homo sapiens] | 1424389_at nucleoporin like 1 | 1424538_at ubiquitin-like 4 | 1424622_at heat shock factor 1 | 1424669_at zinc finger, FYVE domain containing 21 | 1424736_at eukaryotic translation elongation factor 2 | 1424776_a_at solute carrier family 25, member 28 | 1425196_a_at histidine triad nucleotide binding protein 2 | 1425280_at transmembrane channel-like gene family 4 | 1425341_at potassium channel, subfamily K, member 3 | 1425702_a_at ectonucleotide pyrophosphatase/phosphodiesterase 5 | 1425745_a_at transforming, acidic coiled-coil containing protein 2 | 1425927_a_at activating transcription factor 5 | 1425956_a_at cytidine and dCMP deaminase domain containing 1 | 1426353_at signal transducer and activator of transcription 6 | 1426403_at ARP1 actin-related protein 1 homolog B (yeast) | 1426465_at discs, large homolog-associated protein 4 (Drosophila) | 1426486_at UBX domain containing 2 | 1426731_at desmin | 1427039_at epsin 1 | 1427052_at acetyl-Coenzyme A carboxylase beta | 1427079_at microtubule-associated protein, RP/EB family, member 3 | 1427432_a_at Mus musculus transcribed sequences | 1428382_at Mus musculus transcribed sequence with moderate similarity to protein ref: NP_033237.1 (M. musculus) SWI/SNF related, matrix associated, actin dependent regulator of chromatin, subfamily c, member . . . | 1428454_at breast carcinoma amplified sequence 3 | 1428563_at DEAD (Asp-Glu-Ala-Asp) box polypeptide 10 | 1428892_at Mus musculus transcribed sequences | 1429139_at zinc finger, A20 domain containing 1 | 1429201_at cylindromatosis (turban tumor syndrome) | 1429348_at sema domain, immunoglobulin domain (Ig), short basic domain, secreted, (semaphorin) 3C
